The series deals with WS-1 cell lines. Put plainly: Cytotoxicity assay on WS-1 (Example 1). As to conditions: ratio of toxicity on WS-1 to toxicity on S. aureus WT ATCC 25923. The protocol:
Cytotoxicity assay. The cytotoxicity assay was performed in 96-well plates (BD Falcon). The WS-1 cell lines were provided by ATCC. The WS-1 was cultured in DMEM+10% fetal calf serum. The cells were plated in a volume of 100 μL at a density of 5000 cells per well and incubated at 37° C.+5% CO2 for 24 h to promote cell adhesion.
The plates were incubated at 37° C.+5% CO2 for 48 h. The cells were then washed with 100 μL of HBSS and 150 μL of a 2% resazurin were added to the wells.
The therapeutic index is the ratio between the toxicity on normal cells, in this case fibroblast, and the toxicity on bacteria.

For `COc1cc(O)c(C(=O)CCc2ccc(O)cc2)c(O)c1C/C=C/c1ccc(O)cc1` [Compound I], the Therapeutic index stood at 18.

Values taken from patent publication US9499509B2, “Dihydrochalcone derivatives and their use as antibiotic agents” (UNIVERSITÉ DU QUÉBEC À CHICOUTIMI, priority 2012, dated 2016).
